Measured values: US20250049660A1, “ENOL ETHER PROPERFUME” (FIRMENICH SA, priority 2021, published 2025)
Where “and” joins values, the source holds several entries; their conditions need not be identical. Identical values can stand only once.

What was measured:
[1] = Dynamic headspace analysis of line-dried cotton treated with liquid laundry detergent; settings: ± standard deviation; for Dynamic headspace concentration of the perfumery raw material itself, reference: reference liquid laundry detergent with 0.075 mmol of each free volatile; for Dynamic headspace concentration of 2-methylundecanal, profragrance / Dynamic headspace concentration of 2-phenylethanol, profragrance / Dynamic headspace concentration of 2-phenylethyl formate, profragrance / Dynamic headspace concentration of 3-octanol, profragrance / Dynamic headspace concentration of 3-octyl formate, profragrance / Dynamic headspace concentration of 3-(4-methylcyclohex-3-en-1-yl)butanal, profragrance / Dynamic headspace concentration of 10-undecenal, profragrance / Dynamic headspace concentration of 3-(4-(tert-butyl)phenyl)-2-methylpropanal, profragrance: liquid laundry detergent
[2] = Dynamic headspace analysis of line-dried cotton treated with liquid fabric softener; settings: ± standard deviation; for Dynamic headspace concentration of the perfumery raw material itself, reference: reference fabric softener with 0.075 mmol of each free volatile; for Dynamic headspace concentration of 2-methylundecanal, profragrance / Dynamic headspace concentration of 2-phenylethanol, profragrance / Dynamic headspace concentration of 2-phenylethyl formate, profragrance / Dynamic headspace concentration of 3-octanol, profragrance / Dynamic headspace concentration of 3-octanyl formate, profragrance / Dynamic headspace concentration of 3-(4-methylcyclohex-3-en-1-yl)butanal, profragrance / Dynamic headspace concentration of 10-undecanal, profragrance / Dynamic headspace concentration of 3-(4-(tert-butyl)phenyl)-2-methylpropanal, profragrance: fabric softener

For CC(C=O)Cc1ccc(C(C)(C)C)cc1 (stereo not drawn) [3-(4-(tert-butyl)phenyl)-2-methylpropanal, reference compound], the “Dynamic headspace concentration of the perfumery raw material itself, reference” value (shortened to “Dynamic headspace concentration … reference”) ([1]; 60 min sample (60-75 min)) was 2.3 ± 1.3 ng/L, the “Dynamic headspace concentration … reference” value ([1]; 120 min sample (120-135 min)) was 2.9 ± 1.2 ng/L and the “Dynamic headspace concentration … reference” value ([2]; 60 min sample (60-75 min)) was 5.8 ± 2.5 ng/L. For the same compound, the “Dynamic headspace concentration … reference” value ([2]; 120 min sample (120-135 min)) was 8.2 ± 2.5 ng/L.

In the case of CCCCCCCCCC(C)C=COCCc1ccccc1 (stereo not drawn) [Compound 25, (2-((3-methyldodec-1-en-1-yl)oxy)ethyl)benzene], the “Dynamic headspace concentration of 2-methylundecanal, profragrance” value ([1]; 60 min sample (60-75 min)) is reported as 178 ± 11.7 ng/L, the “Dynamic headspace concentration of 2-phenylethanol, profragrance” value ([1]; 60 min sample (60-75 min)) is reported as 12.1 ± 1.97 ng/L and the “Dynamic headspace concentration of 2-phenylethyl formate, profragrance” value ([1]; 60 min sample (60-75 min)) is reported as 106 ± 18.2 ng/L. The “Dynamic headspace concentration of 2-methylundecanal, profragrance” value ([1]; 120 min sample (120-135 min)) was 178 ± 24.4 ng/L, the “Dynamic headspace concentration of 2-phenylethanol, profragrance” value ([1]; 120 min sample (120-135 min)) was 11.5 ± 2.3 ng/L and the “Dynamic headspace concentration of 2-phenylethyl formate, profragrance” value ([1]; 120 min sample (120-135 min)) was 75.4 ± 11.5 ng/L. For the same compound, the “Dynamic headspace concentration of 2-methylundecanal, profragrance” value ([2]; 60 min sample (60-75 min)) was 222 ± 43.4 ng/L, the “Dynamic headspace concentration of 2-phenylethanol, profragrance” value ([2]; 60 min sample (60-75 min)) was 9.2 ± 3.94 ng/L and the “Dynamic headspace concentration of 2-phenylethyl formate, profragrance” value ([2]; 60 min sample (60-75 min)) was 114 ± 15.1 ng/L. For the same compound, the “Dynamic headspace concentration of 2-methylundecanal, profragrance” value ([2]; 120 min sample (120-135 min)) was 216 ± 46.7 ng/L, the “Dynamic headspace concentration of 2-phenylethanol, profragrance” value ([2]; 120 min sample (120-135 min)) was 11.1 ± 2.1 ng/L and the “Dynamic headspace concentration of 2-phenylethyl formate, profragrance” value ([2]; 120 min sample (120-135 min)) was 92.2 ± 69.2 ng/L.

With C=CCCCCCCCCC=O [Compound 10-undecenal, 10-undecenal, reference compound] the “Dynamic headspace concentration … reference” value ([1]; 60 min sample (60-75 min)) was 9.4 ± 1.3 ng/L, the “Dynamic headspace concentration … reference” value ([1]; 120 min sample (120-135 min)) was 10.2 ± 0.3 ng/L and the “Dynamic headspace concentration … reference” value ([2]; 60 min sample (60-75 min)) was 14.1 ± 2.5 ng/L. For the same compound, the “Dynamic headspace concentration … reference” value ([2]; 120 min sample (120-135 min)) was 17.9 ± 6.0 ng/L.

In the case of CCCCCCCCCC(C)C=COC(CC)CCCCC (stereo not drawn) [Compound 29, 3-methyl-1-(octan-3-yloxy)dodec-1-ene], the “Dynamic headspace concentration of 2-methylundecanal, profragrance” value ([1]; 60 min sample (60-75 min)) is reported as 119 ± 47.3 ng/L, the “Dynamic headspace concentration of 3-octanol, profragrance” value ([1]; 60 min sample (60-75 min)) is reported as 10.9 ± 1.3 ng/L and the “Dynamic headspace concentration of 3-octyl formate, profragrance” value ([1]; 60 min sample (60-75 min)) is reported as 16.2 ± 1.6 ng/L. For the same compound, the “Dynamic headspace concentration of 2-methylundecanal, profragrance” value ([1]; 120 min sample (120-135 min)) was 150 ± 2.4 ng/L, the “Dynamic headspace concentration of 3-octanol, profragrance” value ([1]; 120 min sample (120-135 min)) was 8.2 ± 2.5 ng/L and the “Dynamic headspace concentration of 3-octyl formate, profragrance” value ([1]; 120 min sample (120-135 min)) was 12.2 ± 3.6 ng/L. The “Dynamic headspace concentration of 2-methylundecanal, profragrance” value ([2]; 60 min sample (60-75 min)) was 465 ± 54.4 ng/L, the “Dynamic headspace concentration of 3-octanol, profragrance” value ([2]; 60 min sample (60-75 min)) was 99 ± 38.4 ng/L and the “Dynamic headspace concentration of 3-octanyl formate, profragrance” value ([2]; 60 min sample (60-75 min)) was 118 ± 31.6 ng/L. The “Dynamic headspace concentration of 2-methylundecanal, profragrance” value ([2]; 120 min sample (120-135 min)) was 446 ± 54.4 ng/L, the “Dynamic headspace concentration of 3-octanol, profragrance” value ([2]; 120 min sample (120-135 min)) was 91.5 ± 28.3 ng/L and the “Dynamic headspace concentration of 3-octanyl formate, profragrance” value ([2]; 120 min sample (120-135 min)) was 104 ± 32 ng/L.

With CC1=CCC(C(C)CC=O)CC1 (stereo not drawn) [3-(4-methylcyclohex-3-en-1-yl)butanal, reference compound] the “Dynamic headspace concentration … reference” value ([1]; 60 min sample (60-75 min)) was 1.5 ± 0.3 ng/L, the “Dynamic headspace concentration … reference” value ([1]; 120 min sample (120-135 min)) was 1.9 ± 0.6 ng/L and the “Dynamic headspace concentration … reference” value ([2]; 60 min sample (60-75 min)) was 2.6 ± 0.5 ng/L. For the same compound, the “Dynamic headspace concentration … reference” value ([2]; 120 min sample (120-135 min)) was 5.3 ± 0.2 ng/L.

In the case of CC1=CC[C@H](C(C)CC=COCCc2ccccc2)CC1 (stereo partly drawn) [Compound 34, (2-((4-((R)-4-methylcyclohex-3-en-1-yl)pent-1-en-1-yl)oxy)ethyl)benzene], the “Dynamic headspace concentration of 2-phenylethanol, profragrance” value ([1]; 60 min sample (60-75 min)) is reported as 6.3 ± 2.3 ng/L, the “Dynamic headspace concentration of 2-phenylethyl formate, profragrance” value ([1]; 60 min sample (60-75 min)) is reported as 31.7 ± 7.6 ng/L and the “Dynamic headspace concentration of 3-(4-methylcyclohex-3-en-1-yl)butanal, profragrance” value ([1]; 60 min sample (60-75 min)) is reported as 17.3 ± 2.1 ng/L. For the same compound, the “Dynamic headspace concentration of 2-phenylethanol, profragrance” value ([1]; 120 min sample (120-135 min)) was 6.4 ± 4.6 ng/L, the “Dynamic headspace concentration of 2-phenylethyl formate, profragrance” value ([1]; 120 min sample (120-135 min)) was 24.3 ± 12.5 ng/L and the “Dynamic headspace concentration of 3-(4-methylcyclohex-3-en-1-yl)butanal, profragrance” value ([1]; 120 min sample (120-135 min)) was 17.6 ± 10.6 ng/L. The “Dynamic headspace concentration of 2-phenylethanol, profragrance” value ([2]; 60 min sample (60-75 min)) was 19.7 ± 1.8 ng/L, the “Dynamic headspace concentration of 2-phenylethyl formate, profragrance” value ([2]; 60 min sample (60-75 min)) was 111 ± 13.0 ng/L and the “Dynamic headspace concentration of 3-(4-methylcyclohex-3-en-1-yl)butanal, profragrance” value ([2]; 60 min sample (60-75 min)) was 58.1 ± 5.3 ng/L. For the same compound, the “Dynamic headspace concentration of 2-phenylethanol, profragrance” value ([2]; 120 min sample (120-135 min)) was 23.7 ± 2.9 ng/L, the “Dynamic headspace concentration of 2-phenylethyl formate, profragrance” value ([2]; 120 min sample (120-135 min)) was 99.6 ± 21.1 ng/L and the “Dynamic headspace concentration of 3-(4-methylcyclohex-3-en-1-yl)butanal, profragrance” value ([2]; 120 min sample (120-135 min)) was 78.4 ± 5.3 ng/L.

For C=CCCCCCCCCC=COCCc1ccccc1 [Compound 30, (2-(dodeca-1,11-dien-1-yloxy)ethyl)benzene], the “Dynamic headspace concentration of 2-phenylethanol, profragrance” value ([1]; 60 min sample (60-75 min)) was 9.9 ± 3.0 ng/L, the “Dynamic headspace concentration of 2-phenylethyl formate, profragrance” value ([1]; 60 min sample (60-75 min)) was 75.2 ± 42.5 ng/L and the “Dynamic headspace concentration of 10-undecenal, profragrance” value ([1]; 60 min sample (60-75 min)) was 132 ± 60.9 ng/L. The “Dynamic headspace concentration of 2-phenylethanol, profragrance” value ([1]; 120 min sample (120-135 min)) was 9.2 ± 0.8 ng/L, the “Dynamic headspace concentration of 2-phenylethyl formate, profragrance” value ([1]; 120 min sample (120-135 min)) was 55.0 ± 7.1 ng/L and the “Dynamic headspace concentration of 10-undecenal, profragrance” value ([1]; 120 min sample (120-135 min)) was 115 ± 16.0 ng/L. The “Dynamic headspace concentration of 2-phenylethanol, profragrance” value ([2]; 60 min sample (60-75 min)) was 15.9 ± 2.6 ng/L, the “Dynamic headspace concentration of 2-phenylethyl formate, profragrance” value ([2]; 60 min sample (60-75 min)) was 112 ± 23.9 ng/L and the “Dynamic headspace concentration of 10-undecanal, profragrance” value ([2]; 60 min sample (60-75 min)) was 222 ± 29.5 ng/L. For the same compound, the “Dynamic headspace concentration of 2-phenylethanol, profragrance” value ([2]; 120 min sample (120-135 min)) was 16.2 ± 3.4 ng/L, the “Dynamic headspace concentration of 2-phenylethyl formate, profragrance” value ([2]; 120 min sample (120-135 min)) was 97.7 ± 8.9 ng/L and the “Dynamic headspace concentration of 10-undecanal, profragrance” value ([2]; 120 min sample (120-135 min)) was 213 ± 29.5 ng/L.

In the case of CC(C=COCCc1ccccc1)Cc1ccc(C(C)(C)C)cc1 (stereo not drawn) [Compound 35, 1-(tert-butyl)-4-(2-methyl-4-phenethoxybut-3-en-1-yl)benzene], the “Dynamic headspace concentration of 2-phenylethanol, profragrance” value ([1]; 60 min sample (60-75 min)) is reported as 4.4 ± 0.27 ng/L, the “Dynamic headspace concentration of 2-phenylethyl formate, profragrance” value ([1]; 60 min sample (60-75 min)) is reported as 36.9 ± 7.4 ng/L and the “Dynamic headspace concentration of 3-(4-(tert-butyl)phenyl)-2-methylpropanal, profragrance” value ([1]; 60 min sample (60-75 min)) is reported as 34.3 ± 8.8 ng/L. For the same compound, the “Dynamic headspace concentration of 2-phenylethanol, profragrance” value ([1]; 120 min sample (120-135 min)) was 3.3 ± 0.3 ng/L, the “Dynamic headspace concentration of 2-phenylethyl formate, profragrance” value ([1]; 120 min sample (120-135 min)) was 23.2 ± 2.1 ng/L and the “Dynamic headspace concentration of 3-(4-(tert-butyl)phenyl)-2-methylpropanal, profragrance” value ([1]; 120 min sample (120-135 min)) was 32.3 ± 8.1 ng/L. The “Dynamic headspace concentration of 2-phenylethanol, profragrance” value ([2]; 60 min sample (60-75 min)) was 12.4 ± 1.1 ng/L, the “Dynamic headspace concentration of 2-phenylethyl formate, profragrance” value ([2]; 60 min sample (60-75 min)) was 129 ± 6.4 ng/L and the “Dynamic headspace concentration of 3-(4-(tert-butyl)phenyl)-2-methylpropanal, profragrance” value ([2]; 60 min sample (60-75 min)) was 103 ± 32.7 ng/L. The “Dynamic headspace concentration of 2-phenylethanol, profragrance” value ([2]; 120 min sample (120-135 min)) was 16.2 ± 1.3 ng/L, the “Dynamic headspace concentration of 2-phenylethyl formate, profragrance” value ([2]; 120 min sample (120-135 min)) was 145 ± 25.9 ng/L and the “Dynamic headspace concentration of 3-(4-(tert-butyl)phenyl)-2-methylpropanal, profragrance” value ([2]; 120 min sample (120-135 min)) was 128 ± 14.1 ng/L.

For CC(C)=CCCC(C)CCO (stereo not drawn) [citronellol, reference compound], the “Dynamic headspace concentration … reference” value ([2]; 60 min sample (60-75 min)) was 1.9 ± 0.3 ng/L and the “Dynamic headspace concentration … reference” value ([2]; 120 min sample (120-135 min)) was 2.0 ± 0.5 ng/L.

With CCCCCCCCCC(C)C=O (stereo not drawn) [2-methylundecanal, reference compound] the “Dynamic headspace concentration … reference” value ([1]; 60 min sample (60-75 min)) was 6.3 ± 0.1 ng/L and 5.9 ± 0.81 ng/L and the “Dynamic headspace concentration … reference” value ([1]; 120 min sample (120-135 min)) was 14.9 ± 2.2 ng/L and 7.7 ± 0.9 ng/L.

With CCCCCCC(C)O (stereo not drawn) [Compound 2-octanol, 2-octanol, reference compound] the “Dynamic headspace concentration … reference” value ([2]; 60 min sample (60-75 min)) was 0.4 ± 0.15 ng/L and the “Dynamic headspace concentration … reference” value ([2]; 120 min sample (120-135 min)) was 0.36 ± 0.04 ng/L.
